# Reference: article PMC6943125
# Biological target: T1, GST-DHX30 (human) (UniProt Q7L2E3)
# T1 sequence: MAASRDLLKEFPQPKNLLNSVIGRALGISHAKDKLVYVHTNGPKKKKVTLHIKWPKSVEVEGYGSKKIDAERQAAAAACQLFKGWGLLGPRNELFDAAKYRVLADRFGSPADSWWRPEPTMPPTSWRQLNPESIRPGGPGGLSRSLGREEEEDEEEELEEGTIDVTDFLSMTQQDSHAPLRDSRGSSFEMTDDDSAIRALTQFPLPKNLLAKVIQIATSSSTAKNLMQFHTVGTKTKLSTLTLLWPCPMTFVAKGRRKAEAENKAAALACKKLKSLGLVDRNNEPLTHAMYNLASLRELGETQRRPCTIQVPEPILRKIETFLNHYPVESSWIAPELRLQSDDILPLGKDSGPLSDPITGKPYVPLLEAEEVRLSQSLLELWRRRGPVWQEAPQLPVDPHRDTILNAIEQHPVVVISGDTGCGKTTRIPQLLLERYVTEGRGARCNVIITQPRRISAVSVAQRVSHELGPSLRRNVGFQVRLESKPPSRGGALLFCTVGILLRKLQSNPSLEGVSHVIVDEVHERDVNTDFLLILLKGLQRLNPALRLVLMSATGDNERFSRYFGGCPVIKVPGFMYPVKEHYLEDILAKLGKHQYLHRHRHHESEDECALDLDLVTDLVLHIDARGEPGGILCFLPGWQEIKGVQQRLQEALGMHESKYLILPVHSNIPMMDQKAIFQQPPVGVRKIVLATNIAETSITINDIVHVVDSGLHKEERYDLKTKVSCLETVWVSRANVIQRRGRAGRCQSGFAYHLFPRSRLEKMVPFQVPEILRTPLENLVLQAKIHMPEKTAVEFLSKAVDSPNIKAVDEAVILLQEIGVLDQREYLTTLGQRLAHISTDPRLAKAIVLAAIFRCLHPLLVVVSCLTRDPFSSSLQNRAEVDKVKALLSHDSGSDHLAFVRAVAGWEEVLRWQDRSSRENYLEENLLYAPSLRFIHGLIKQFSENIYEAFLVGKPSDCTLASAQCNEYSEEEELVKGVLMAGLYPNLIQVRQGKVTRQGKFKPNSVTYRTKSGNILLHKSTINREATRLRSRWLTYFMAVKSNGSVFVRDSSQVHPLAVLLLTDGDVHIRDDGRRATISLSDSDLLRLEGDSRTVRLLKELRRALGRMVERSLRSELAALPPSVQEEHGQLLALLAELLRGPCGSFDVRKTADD
# Test: pull-down
row,Substance,binding
1,NP (nucleoprotein) of Ud virus (influenza A virus (Ud virus)),no binding
2,PB1 viral polymerase subunit of Ud virus (influenza A virus (Ud virus)),no binding
3,PA viral polymerase subunit of Ud virus (influenza A virus (Ud virus)),no binding
4,PB2 viral polymerase subunit of Ud virus (influenza A virus (Ud virus)),no binding
5,M1 (matrix protein) of Ud virus (influenza A virus (Ud virus)),no binding

# Results are given in words; binding and its absence hold for the method and conditions named. In cells and extracts the contact can be indirect. Where a sequence is shown, tags or fusion partners need not be part of it.
